Experimental data from article PMC8261488, “Contraceptive progestins with androgenic properties stimulate breast epithelial cell proliferation” (EMBO Molecular Medicine, 2021).

Assays:
[1] = test system: mouse mammary organoids; assay: RNA sequencing of mouse mammary organoids stimulated ex vivo with R5020; type: cell-based; settings: R5020 20 nM, 6 h, adj. P.Val < 0.05
Excerpt: To test this hypothesis, we sought for biological readouts in physiologically relevant models. First, we recurred to using an ex vivo assay for the transcriptional response of the mouse mammary epithelium to hormones. We isolated mammary glands from several inbred adult female mice, treated them mechanically and enzymatically to generate epithelial‐enriched organoids, which remain hormone‐responsive (Ayyanan et al, 2011), and exposed them either to vehicle or to the stable progesterone mimic promegestone (R5020, 20 nM) for 6 h and performed RNA sequencing (Fig 1A). Three independent experiments were performed, and principal component analysis (PCA) grouped the samples according to treatment (Fig 1B). […] Together, these observations confirm that PR signaling is intact in this ex vivo model and that the functionally important factors, Rankl and Wnt4, are robust PR target genes in the mouse mammary epithelium.
Animal experiments were performed in accordance with protocol approved by the Service de la Consommation et des Affaires vétérinaires of Canton de Vaud (VD 1865.3, VD 1865.4). NOD. Cg‐Prkdc^scid Il2rg^tm1Wjl/SzJ mice (Charles River), BalbC, and C57Bl6 breeders were purchased from Jackson Laboratories. Mammary glands were isolated from 18‐ to 35‐week‐old mice, lymph nodes removed, minced with surgical blades, and digested in DMEM/F12, 1% penicillin/streptomycin B with collagenase A 0.25 mg/ml (Roche). Tissue was concomitantly stimulated with hormones for 1, 2, or 6 h and centrifuged at 652 g for 5 min. Fat was removed, and pellet containing organoids washed with phosphate‐buffered saline (PBS), resuspended 5 min in 3 ml red cell blood lysis buffer and washed twice with PBS.
RNAseq libraries were prepared using Truseq Stranded RNA producing single‐end reads of 100 bp and sequenced on Illumina Hiseq 2500 instrument. […]
Sequencing reads were quality controlled using FastQC (v0.11.8) (Wingett & Andrews, 2018). Mouse raw reads were aligned to the mouse genome (mm9) and human raw reads to the human genome (hg19) using TopHat (v2.0.11) (Kim et al, 2013). […]

[2] = test system: human breast tissue microstructures (EpCAM+ cells); assay: RNA sequencing of EpCAM+ cells from human breast tissue microstructures stimulated ex vivo; type: cell-based; settings: 14–18 h exposure; for number of genes with affected expression levels: adj.P < 0.05, n = 3

SMILES	differentially expressed genes [1]	down modulated genes [1]	upregulated genes [1]	share of progesterone-induced gene expression changes also induced by R5020 [2]	number of genes with affected expression levels [2]
CCC(=O)[C@@]1(C)CC[C@H]2[C@@H]3CCC4=CC(=O)CCC4=C3CC[C@@]21C [R5020, promegestone]	162	55	107	More than 90%	112
CC(=O)[C@H]1CC[C@H]2[C@@H]3CCC4=CC(=O)CC[C@]4(C)[C@H]3CC[C@]12C [progesterone]	–	–	–	–	65
